Consider one molecule from paper PMC10247153.

These are yes or no findings as the source states them, for the method shown.

For this assay, the target named is T1, ARID (KDM5C residues 73–188) (human) (UniProt P41229).
T1 sequence: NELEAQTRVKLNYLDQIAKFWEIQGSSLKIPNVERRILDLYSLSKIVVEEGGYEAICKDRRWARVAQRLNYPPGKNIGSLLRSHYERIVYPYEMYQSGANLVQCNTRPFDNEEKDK
The experiment in a line: condition: up to 1:3 molar ratio of ARID:PHD1 (50 μM ARID); NMR titration; 2D 1H-15N HSQC of 50 μM 15N-ARID with increasing PHD1 up to 1:3 ARID:PHD1; 50 mM HEPES pH 7, 50 mM KCl, 5 mM BME, 50 μM ZnCl2, 5% D2O, 298 K; both purified.

B1: PHD1 (KDM5C residues 318–378) (domain or fragment, UniProt P41229-1 318-378)
chain: NAQFIESYVCRMCSRGDEDDKLLLCDGCDDNYHIFCLLPPLPEIPKGVWRCPKCVMAECKR
B1: the binding entry is on record as “no binding”.
